At least one peptide structure holds a part that was inferred or is arguable (an end, a ring closure or a residue). Residues, ends and D or L forms follow the SMILES beside them.
Experiments:
[1] = molecular target: fβH2_mt/PD-L1 complex (Homo sapiens, UniProt Q9NZQ7); assay: Fluorescence polarization (FP) competition assay; format: binding; conditions: 10 nM, PD-L1, 2 μM, FIG. 15
Protocol: Fluorescence polarization (FP) assay. FP assay in PBS was used the PD-L1 binding and competition assays (λex=480 nm; λem=535 nm). Fluorescence anisotropy measurements were performed at room temperature, in a 384-well plate, and using an Infinite® M1000 Pro microplate reader (Tecan). A fβH2_mt/PD-L1 complex was used for the FP competition assay after 30 min incubation time and titrated with the competitors.

By UniProt entry, the sequences of proteins in these tests, tags left out. Residues count along the entry.
UniProt Q9NZQ7, 19-239 limits assumed: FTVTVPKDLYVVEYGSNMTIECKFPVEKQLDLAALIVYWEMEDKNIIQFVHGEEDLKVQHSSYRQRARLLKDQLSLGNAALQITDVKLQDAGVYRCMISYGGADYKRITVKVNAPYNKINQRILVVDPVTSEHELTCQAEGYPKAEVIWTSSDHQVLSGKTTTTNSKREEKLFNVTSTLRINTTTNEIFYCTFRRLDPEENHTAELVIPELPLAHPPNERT

[2] = test system: 786-O/Jurkat T cell interaction (PD-1/PD-L1); assay: T cell cytokine production (IL-2 ELISA) in cancer cell/Jurkat T cell co-culture; format: cell-based, Human; conditions: co-cultured with 786-O cells; FIG. 20
[3] = test system: 786-O cells; assay: Chemosensitivity assay with doxorubicin in cancer cell/Jurkat T cell co-culture; format: cell-based, Human; conditions: 786-O cells co-cultured with Jurkat T cells, then DOX; FIG. 22
Protocol: Cell culture. Human renal cell carcinoma (RCC) cell line, 786-O, and breast cancer cell line, MCF-7, were utilized as high- and low-PD-L1 expressing cancer cell models, respectively. The human T lymphocyte cell line, Jurkat, was used in this study as a representative PD-1-expressing immune cells. 786-O and Jurkat T cells were cultured in RPMI media, while MCF-7 cells were grown in DMEM media. All cell culture media were supplemented with 1% (v/v) penicillin/streptomycin (P/S) and 10% (v/v) fetal bovine serum (FBS). Cells were incubated under humidified atmosphere containing 5% CO2 at 37° C.
Chemosensitivity Assay. Chemosensitivity assay was performed by measuring the synergistic cytotoxicity effect of immune checkpoint inhibitors, together with chemotherapeutic drug, doxorubicin. Cancer cells were plated in 96-well plates (5,000 cells/well) and incubated for 48 h. Cancer cells and Jurkat T cells were pre-treated with IFNγ and PHA/PMA as aforementioned. Cancer cells were then stained with calcein AM (1.5 μM), followed by 2 h treatment with ICIS. The cells were co-cultured for another 24 h in a 1:4 ratio, prior to doxorubicin (5 μM) treatment. The effect of each ICI on cancer cell survival following doxorubicin treatment (2 h) was analyzed based on changes in fluorescent intensity.

`CC(C)[C@H](NC(=O)[C@@H](NC(=O)[C@@H](N)Cc1c[nH]cn1)C(C)C)C(=O)N[C@@H](Cc1c[nH]c2ccccc12)C(=O)N[C@@H](Cc1c[nH]cn1)C(=O)N[C@@H](CCCNC(=N)N)C(=O)N[C@@H](CCC(=O)O)C(=O)N[C@@H](CO)C(=O)N1CCC[C@H]1C(=O)N[C@@H](CO)C(=O)NCC(=O)N[C@@H](CCC(N)=O)C(=O)N[C@H](C(=O)N[C@@H](CC(=O)O)C(=O)N[C@H](C(=O)N[C@@H](CCCCN)C(=O)N[C@@H](C)C(=O)N[C@@H](C)C(N)=O)[C@@H](C)O)[C@@H](C)O` [βH2_mt, HVVWHRESPSGQTDTKAA] (H-HVVWHRESPSGQTDTKAA-NH2; N-terminus and C-terminus assumed) was tested, and the “displacement of fβH2_mt from PD-L1 / complex integrity” value [1] was “not affected”, the “increase of IL-2 secretion from Jurkat T cells compared with non-treated cancer cells” value [2] was “neither free peptides nor fully acetylated dendrimers induced noticeable IL-2 production” and the “decrease of cell viability compared to cells treated with doxorubicin only” value [3] was 1.8±2.0%.

— US11564995B2, “Peptide-nanoparticle conjugates” (Wisconsin Alumni Research Foundation, priority 2018, dated 2023)
